Our source for the binding values is patent US20250355001A1, “METHOD FOR DETECTING A TAU PROTEIN FRAGMENT IN A SAMPLE” (GTINVENT LIMITED, priority 2022, published 2025).

Amino acid sequences for entries named in this document (tags omitted). A change or cut given only in a name is not applied to a line headed by its entry.
UniProt P10637: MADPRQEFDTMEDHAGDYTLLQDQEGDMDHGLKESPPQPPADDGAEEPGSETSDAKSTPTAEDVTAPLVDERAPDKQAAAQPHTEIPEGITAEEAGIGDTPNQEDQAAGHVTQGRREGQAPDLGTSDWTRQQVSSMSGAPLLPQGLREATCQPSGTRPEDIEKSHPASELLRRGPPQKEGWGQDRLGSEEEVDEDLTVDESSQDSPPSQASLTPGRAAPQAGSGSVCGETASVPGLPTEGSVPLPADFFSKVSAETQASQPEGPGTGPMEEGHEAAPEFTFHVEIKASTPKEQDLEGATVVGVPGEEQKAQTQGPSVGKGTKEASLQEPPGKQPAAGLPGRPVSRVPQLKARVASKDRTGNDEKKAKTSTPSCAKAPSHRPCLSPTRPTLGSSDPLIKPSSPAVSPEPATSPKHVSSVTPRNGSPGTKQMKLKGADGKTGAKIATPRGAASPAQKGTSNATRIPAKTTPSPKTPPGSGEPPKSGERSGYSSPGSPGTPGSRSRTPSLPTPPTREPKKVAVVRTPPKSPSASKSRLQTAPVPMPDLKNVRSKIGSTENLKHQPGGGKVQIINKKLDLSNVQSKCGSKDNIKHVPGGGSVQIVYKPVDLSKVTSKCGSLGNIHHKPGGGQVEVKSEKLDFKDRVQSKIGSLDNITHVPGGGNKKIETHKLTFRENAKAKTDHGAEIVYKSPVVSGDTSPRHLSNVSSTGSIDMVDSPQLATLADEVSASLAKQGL
UniProt P10636: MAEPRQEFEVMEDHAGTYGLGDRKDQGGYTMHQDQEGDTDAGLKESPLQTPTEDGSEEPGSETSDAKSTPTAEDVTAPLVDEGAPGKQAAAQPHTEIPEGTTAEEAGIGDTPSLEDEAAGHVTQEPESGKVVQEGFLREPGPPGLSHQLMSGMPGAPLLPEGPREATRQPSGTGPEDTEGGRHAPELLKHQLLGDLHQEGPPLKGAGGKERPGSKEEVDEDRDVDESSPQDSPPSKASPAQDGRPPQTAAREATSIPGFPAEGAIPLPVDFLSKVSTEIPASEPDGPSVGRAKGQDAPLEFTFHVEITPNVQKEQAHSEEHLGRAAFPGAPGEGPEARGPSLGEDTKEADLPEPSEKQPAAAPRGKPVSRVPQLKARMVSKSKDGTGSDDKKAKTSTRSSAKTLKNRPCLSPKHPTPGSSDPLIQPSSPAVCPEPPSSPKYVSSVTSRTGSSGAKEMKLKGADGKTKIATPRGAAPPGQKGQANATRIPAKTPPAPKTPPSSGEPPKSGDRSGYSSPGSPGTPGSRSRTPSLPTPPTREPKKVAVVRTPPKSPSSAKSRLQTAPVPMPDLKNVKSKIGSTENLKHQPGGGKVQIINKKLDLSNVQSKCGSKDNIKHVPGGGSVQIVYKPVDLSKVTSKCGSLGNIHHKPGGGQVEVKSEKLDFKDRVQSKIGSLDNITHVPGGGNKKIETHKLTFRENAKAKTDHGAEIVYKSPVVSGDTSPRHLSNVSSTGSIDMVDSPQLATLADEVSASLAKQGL

Results are given in words; binding and its absence hold for the method and conditions named. Some results given as binding are weak or reduced against the parent protein; the word gives no strength.

In one assay the target is mouse tau (mouse) (UniProt P10637). The assay can be described thus: Western blot. Background: Immunoblotting shows a protein as a band on a membrane.
Assay [1] has as its target human tau fragment 296-390 of Line 1 mice (human) (UniProt P10636). The assay can be described thus: Western blot.
The target of assay [2] is tau fragment 266-359 (R1-3) (human) (UniProt P10636). The assay can be described thus: ELISA. Background: ELISA stands for enzyme-linked immunosorbent assay.
Assay [3] shares this target. The assay can be described thus: direct ELISA.

B1: S1D12 mAb (antibody, mouse IgG2a, V domains shown)
VH: QVQLQESGPSLVKPSQTLSLTCTVSGFSLNNNAVGWVRQAPGKVPESLVGCSSDGTCYYNSALKSRLDITRDTSKNQISLSLSSVTTDDAAVYYCTRGHYSIYGYDYLGTIDYWGPGLLVTVSS
VL: QAVLTQPSSVSGSLGQRVSITCSGSSSNVGGGNSVGWYQHLPGSGLKTIIYDTNSRPSGVPDRFSGSRSGNTATLTINSLQAEDEGDYYCVTGDSTTHDDLVGSGTRLTVLG
For the molecule B1, in the assay with mouse tau (mouse), the binding entry is on record as “binds”.

B2: S1G2 mAb (antibody, mouse IgG2a, V domains shown)
VH: QVQLQESGPSLVKPSQTLSLTCTVSGFSLTSNSVGWVRQAPGKAPEWVAGIDTDGEEGYNPALNSRLSITRDTSKSQVSLSLSSVTSEDTAVYYCGRSYRADGLAYGYVQAIDYWGPGLLVTVSS
VL: QAVVTQPSSVSGSLGQRVSITCSGSFIGISSVGWFQQLPGSGLRTIIVASDGRPSGVPDRFSMSKSGNTATLTISSLQAEDEADYFCGSSDRTPYTGVFGSGTRLTVLG
Turning to B2, the binding result (in assay [1]; in the assay with mouse tau (mouse)) was “binds” throughout.

B3: CE3 scAb (scFv, not shown: small tags and cut ends)
scFv: QVRLQESGPSLVKPSQTLSVTCTVSGFSLISNAVGWVRQAPGKVPESLAGCSSDGKCYYNSALKSRLDITRDTSKNQISLSLSSVTTDDAAVYYCTRGYYPVYGYDYLGTIDYWGPGLLVTVSSEGKSSGASGESKVDDQAVLTQPSSVSGSLGQRVSITCSGSSSNVGRNDVAWFQQLPGSGLRTIIYGTTSRPSGIPDRFSGSKSGVTATLTIDSLQAEDEADYFCASGDSSAINDIFGSGTRLTVLG
For B3, the binding result in assay [2] and in assay [3] was “binds” in each case.

B4: S1D12 scAb (scFv, not shown: small tags and cut ends)
scFv: QVQLQESGPSLVKPSQTLSLTCTVSGFSLNNNAVGWVRQAPGKVPESLVGCSSDGTCYYNSALKSRLDITRDTSKNQISLSLSSVTTDDAAVYYCTRGHYSIYGYDYLGTIDYWGPGLLVTVSSEGKSSGASGESKVDDQAVLTQPSSVSGSLGQRVSITCSGSSSNVGGGNSVGWYQHLPGSGLKTIIYDTNSRPSGVPDRFSGSRSGNTATLTINSLQAEDEGDYYCVTGDSTTHDDLVGSGTRLTVLG
Consider B4, for which the binding result in assay [2] and in assay [3] was “binds” throughout.

B5: CE2 scAb (scFv, not shown: small tags and cut ends)
scFv: QVQLQESGPSLVKPSQTLSLTCTVSGFSLTNYPVGWVRQAPGKALEWIGNIENDGSANYASALKSRLSITRDTSKNQVSLSLSSATTEDTAVYYCGREFGGSDGYTYFVDIDYWGPGLLVTVSSEGKSSGASGESKVDDQAVLTQPSSVSKSLGQSVSITCSGSSSNVGYGNYVSWFQQVPGSAPKILIYGATSRASGVPDRFSGSRSGNTATLTITSLQAEDEADYYCASYDGSSSGVFGSGTRLTVLG
As for B5, the binding result in assay [2] and in assay [3] was “binds” in each case.
